Measured values published in PubChem BioAssay AID1671190 (National Center for Advancing Translational Sciences (NCATS), 2021).
Values joined by “and” are separate entries in the source; they are usually repeats but may differ in a detail not shown here. Equal entries are not always repeated. About 6,100 (1.1%) of roughly 580,000 compounds were called active. This list was built around the results that the source calls inconclusive (neither active nor inactive); the mix of calls is not that of the screen. Calls come from the whole dose curve; as a rule, active = well fitted inhibition curve with a large enough effect; inconclusive = small, poorly fitted or top-dose-only effect, or another doubt; inactive = no such curve, though single readings can be large or run the other way. A potency beside an inconclusive call is a rough fit, not a confirmed value.

Protein sequences, listed by entry. Tags and fused reporters are not part of them.
UniProt P18054, whole entry, looked up: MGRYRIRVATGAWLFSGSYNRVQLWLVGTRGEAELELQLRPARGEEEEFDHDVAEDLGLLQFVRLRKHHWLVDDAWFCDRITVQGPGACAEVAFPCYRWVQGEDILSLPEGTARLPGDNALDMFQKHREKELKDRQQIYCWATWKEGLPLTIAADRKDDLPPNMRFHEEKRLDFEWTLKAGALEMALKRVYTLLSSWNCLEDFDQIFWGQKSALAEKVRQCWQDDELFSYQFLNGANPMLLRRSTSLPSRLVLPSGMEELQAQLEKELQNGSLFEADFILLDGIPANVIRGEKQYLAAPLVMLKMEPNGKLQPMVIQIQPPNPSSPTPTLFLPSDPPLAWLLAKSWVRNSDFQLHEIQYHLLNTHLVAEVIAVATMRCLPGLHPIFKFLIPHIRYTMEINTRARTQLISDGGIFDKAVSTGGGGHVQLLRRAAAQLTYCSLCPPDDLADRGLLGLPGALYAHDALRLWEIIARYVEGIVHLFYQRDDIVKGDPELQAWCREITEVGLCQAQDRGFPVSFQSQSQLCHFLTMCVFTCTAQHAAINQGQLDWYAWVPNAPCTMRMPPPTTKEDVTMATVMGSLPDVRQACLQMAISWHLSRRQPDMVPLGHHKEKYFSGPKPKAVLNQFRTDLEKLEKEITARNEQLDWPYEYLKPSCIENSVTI

Target: Polyunsaturated fatty acid lipoxygenase ALOX12 (Homo sapiens) (UniProt P18054)
Assay: Primary qHTS assay for inhibitors of human arachidonate 12S-lipoxygenase (ALOX12): Round 2
Details: purified 12hLO, xylenol orange hydroperoxide absorbance; activity change, negative = inhibition: at 108 µM (top of the series) unless noted
Method in brief: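 Hydroperoxide product was detected by ferrous iron/xylenol orange as the 573 to 405 nm absorbance ratio. Arachidonic acid at 40 uM (final) was turned over for 30 min at room temperature by 150 nM human 12hLO, pH 7.0 Hepes buffer, after 15 min compound preincubation.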
% is set by controls: 0 for no effect and ±100 for the full control effect; potency is the fitted concentration of half-maximal effect.

SMILES	Potency	activity change, negative = inhibition
COc1ccc(CNC(=O)Cn2ccc3cc(S(=O)(=O)N4CCCCCC4)ccc32)cc1OC	inconclusive: 100 µM [inhibitor, partial curve, poor fit]	
O=C(Nc1nc(-c2cccs2)cs1)c1cccc(S(=O)(=O)N2CCCCC2)c1	inconclusive: 56.2 µM [inhibitor, partial curve, poor fit]	
COc1ccc(NC(=O)C2CCN(S(=O)(=O)c3cccs3)CC2)cc1OC	inconclusive: 112 µM [inhibitor, single point]	
O=C(NCCc1cccc2ccccc12)c1ccc2ccccc2n1	inactive	
O=C(c1csc(Cc2ccccc2)n1)N1CCC2(CCCNC2)C1 (stereo not given)	inconclusive: 12.6 µM [inhibitor, full curve]	
Cc1[nH]nc2c1-c1nc3ccccc3nc1C(C)(C)C2	inactive	
C1CCCCCC(=NNc2nn[nH]n2)CCCCC1	inconclusive: 4.47 µM [inhibitor, full curve, poor fit]	
COc1cccc(/C=C2/Sc3ccc(C(=O)NCCCN4CCCC4)cc3NC2=O)c1	inconclusive: 89.1 µM [inhibitor, single point]	
O=C(O)CCn1ncc2cc(OCC3CCN(c4nccc(C(F)(F)F)n4)CC3)ccc21	inconclusive: 39.8 µM [inhibitor, partial curve]	
CCOC(=O)C1=C(c2ccccc2)NC(N)=NC1c1ccc(OCc2ccc(C(=O)OC)cc2)cc1 (stereo not given)	inconclusive: 70.8 µM [inhibitor, partial curve, poor fit]	
COc1ccc(-n2cc(CNC3CCN(C)CC3)c(-c3cccc(F)c3)n2)cc1	inconclusive: 79.4 µM [inhibitor, partial curve, poor fit]	
CC(=O)c1ccccc1C(=O)N1CCCC(CNC(=O)c2ccccc2Cl)C1 (stereo not given)	inactive	
COc1ccc(-c2noc([C@@H](C)NC(=O)C3CCCCC3)c2C(=O)O)cc1	inactive	
CCCCn1c(SCC(=O)Nc2nnc(C(C)C)s2)nc2c1c(=O)n(C)c(=O)n2C	inactive	
NC(=O)c1ccc(NC(=O)COc2cccc3c2CCNC3=O)cc1	inconclusive: 39.8 µM [inhibitor, partial curve, poor fit]	
CCCCNC(=O)CCC(=O)NCc1ccc(F)cc1	inconclusive: 0.1 µM [inhibitor, full curve, poor fit]	
CC(NC(=O)CCC1CCCO1)c1cccs1 (stereo not given)	inactive	
COc1cc(-c2nc(-c3cccc(C)c3)no2)cc(OC)c1OC	inactive	
CCOc1ccc(-n2c(-c3ccc(Cl)cc3)c[n+]3c2SCC3)cc1	inactive	
CC(=O)NCCNC(=O)CCCc1nnc2n(CCC(C)C)c(=O)c3sccc3n12	inactive	
CCOC(=O)c1c(C)[nH]c(CCC(=O)NCCCN2CCN(c3cccc(Cl)c3)CC2)c1C	inconclusive: 79.4 µM [inhibitor, partial curve, poor fit]	
O=C(Nc1ccc(Cl)cc1)Nc1cc(S(=O)(=O)N2CCOCC2)ccc1N1CCCC1	inconclusive: 50.1 µM [inhibitor, partial curve, poor fit]	

SMILES	Potency	activity change, negative = inhibition
CN1CC(=O)N(C2CCCNCC2)Cc2c(NCC3CCCCC3)ncnc21 (stereo not given)	inconclusive: 2.24 µM [inhibitor, full curve]	
CC(NC1CCN(Cc2ccccc2)CC1)c1ccc(F)cc1 (stereo not given)	inconclusive: 79.4 µM [inhibitor, partial curve, poor fit]	
O=C(c1ccc(COc2ccc(Cl)cc2)o1)N1N=C(C(F)F)CC1(O)C(F)F (stereo not given)	inactive	
CCS(=O)(=O)N1CCc2cc(C(=O)N3CCN(c4cccc(C(F)(F)F)c4)CC3)ccc21	inconclusive: 126 µM [inhibitor, partial curve, poor fit]	
COCCN1C(=O)c2ccccc2C(C(=O)Nc2ccc(F)cc2)C12CCCC2 (stereo not given)	inconclusive: 79.4 µM [inhibitor, single point]	
C=COCCNC(=O)Nc1ccc(Cl)c(Cl)c1	inconclusive: 89.1 µM [inhibitor, single point]	
COc1ccc(C2CC(c3cccs3)=NN2c2nc(-c3ccccc3)cs2)cc1OC (stereo not given)		inconclusive: -37.6% [inhibitor]
CC1(C(=O)NCc2cccnc2)CCC(=O)N1CCc1ccccc1 (stereo not given)	inconclusive: 17.8 µM [inhibitor, full curve, poor fit]	
CN(Cc1ccc(Br)cc1)C(=O)Cn1nnn(-c2cccs2)c1=O	inconclusive: 50.1 µM [inhibitor, partial curve, poor fit]	
CCNc1ccc(N=Nc2c(C)n(C)n(-c3ccccc3)c2=O)cc1	inconclusive: 89.1 µM [inhibitor, partial curve, poor fit]	
Cc1ccc(S(=O)(=O)N2[C@H](CC(=O)c3ccc(Cl)c(Cl)c3)OC[C@@H]2C)cc1	inconclusive: 50.1 µM [inhibitor, partial curve, poor fit]	
CCOCCCNC(=O)C(c1ccc(OC)cc1)N(Cc1cccs1)C(=O)c1ccc(NC(C)=O)cc1 (stereo not given)	inactive	
Oc1cccc(C(Nc2ccccn2)c2ccc3cccnc3c2O)c1Cl (stereo not given)		inconclusive: -41.4% [inhibitor]
CCOC(=O)N1CCN(CCC(=O)Nc2ccc(C)c(Br)c2)CC1	inconclusive: 141 µM [inhibitor, single point]	
Nc1ccc2c(=O)[nH][nH]c(=O)c2c1	inactive	
COc1ccc(NC(=O)c2c3c(nc4ccccc24)CCC3)cc1S(=O)(=O)N1CCOCC1	inconclusive: 79.4 µM [inhibitor, partial curve, poor fit]	
Cc1c(CCOC(=O)c2ccc(Cl)cc2Cl)sc[n+]1CC(=O)c1ccc(Br)cc1	inconclusive: 39.8 µM [inhibitor, partial curve, poor fit]	
Cc1c(CCOC(=O)CC23CC4CC(CC(C)(C4)C2)C3)sc[n+]1CC(=O)c1ccccc1	inconclusive: 50.1 µM [inhibitor, partial curve, poor fit]	
CCOC(=O)NC(Nc1sc2c(c1C(N)=O)CCCC2)(C(=O)OCC)C(F)(F)F (stereo not given)	inconclusive: 35.5 µM [inhibitor, partial curve]	
N[C@@H](Cc1ccc(O)c(I)c1)C(=O)O	inconclusive: 7.94 µM [inhibitor, full curve, poor fit]	
CCCC(=O)NC(c1cccc([N+](=O)[O-])c1)c1ccc2cccnc2c1O (stereo not given)	inconclusive: 28.2 µM [inhibitor, partial curve, poor fit]	
CC(=O)Cn1cnc2c(sc3nc(C)cc(C)c32)c1=O	inconclusive: 100 µM [inhibitor, single point]	

A portion from the list above:
SMILES	Potency	activity change, negative = inhibition
COc1ccc(C2CC(c3cccs3)=NN2c2nc(-c3ccccc3)cs2)cc1OC (stereo not given)		inconclusive: -37.6% [inhibitor]
CC1(C(=O)NCc2cccnc2)CCC(=O)N1CCc1ccccc1 (stereo not given)	inconclusive: 17.8 µM [inhibitor, full curve, poor fit]	

The list goes on.

SMILES	Potency	activity change, negative = inhibition
COc1ccc(CCC(=O)N2CCC3(CC2)NC(=O)N(c2cccc(Cl)c2)N3)cc1	active: 2 µM	
Fc1cccc(-c2nc(-c3ccncc3)no2)c1	inconclusive: 0.0891 µM [inhibitor, full curve, poor fit]	
Fc1ccccc1CSCc1ccc(-c2nc(-c3ccccc3)no2)o1	inconclusive: 39.8 µM [inhibitor, partial curve, poor fit]	
Cc1ccc(N2C(=O)CCC2(C#N)c2ccccc2)cc1 (stereo not given)	inconclusive: 126 µM [inhibitor, single point]	
COCC1CCN(C(=O)c2oc3c(F)cccc3c2C)C1 (stereo not given)	inconclusive: 17.8 µM [inhibitor, single point]	
O=c1oc2cc(O)ccc2cc1-c1nc(-c2ccc3ccccc3c2)cs1	inconclusive: 8.91 µM [inhibitor, partial curve, poor fit]	
O=C(O)C(c1ccccc1)N1C(=O)/C(=C/c2cccs2)SC1=S (stereo not given)	inconclusive: 31.6 µM [inhibitor, single point]	
N#CC1=C(SCC(=O)Nc2ccccc2C(F)(F)F)NC(=O)CC1c1ccc(F)cc1 (stereo not given)	inactive	
CCN1CCC(n2cc(CNc3cc(Cl)c4ncc(C#N)c(Nc5ccc(F)c(Cl)c5)c4c3)nn2)CC1	inconclusive: 8.63 µM [inhibitor, full curve, poor fit]	
CNC(=O)NC(=O)C(C)OC(=O)c1c2c(nc3ccccc13)/C(=C/c1cccs1)CC2 (stereo not given)	inconclusive: 50.1 µM [inhibitor, partial curve]	
COc1ccc(OC)c(NC(=O)c2cc(-c3ccc(C)cc3O)n[nH]2)c1	inactive	
Nc1ccc(S(=O)(=O)Nc2ccccn2)cc1	inactive and inconclusive: 17.2 µM [inhibitor, single point]	
Cc1sc2nc(CN3CCCCC3)nc(Nc3ccc4c(c3)OCCO4)c2c1C	inactive	
O=C(COc1ccc(-c2ccccc2)cc1)NNC(=O)Nc1ccc(F)cc1F	inactive	
CCCCn1c(SCc2nc(N)nc(Nc3ccccc3C)n2)nc2ccccc2c1=O	inactive	
CCC(=O)N1CCN(c2ccc(NC(=O)c3ccc4c(c3)OCO4)cc2)CC1	inconclusive: 31.6 µM [inhibitor, partial curve, poor fit]	
Cc1ccc(-n2nnnc2SC(C(=O)N2CCCC2)c2ccccc2)cc1C (stereo not given)	inactive	
COc1cc(C(CC(=O)N2CCCC2)c2c(OC)cc(OC)c3c(-c4ccccc4)cc(=O)oc23)cc(OC)c1OC (stereo not given)	inconclusive: 44.7 µM [inhibitor, partial curve, poor fit]	
Cc1ccc2c(c1)C(=O)C(=O)N2CCOc1ccccc1	inactive	
COCCOc1ccc(C(=O)/C=C/c2cc(OC)c(O)c(OC)c2)cc1	inconclusive: 6.31 µM [inhibitor, full curve, poor fit]	
c1ccc(-c2ccccc2OCCCN2CCCC2)cc1	inconclusive: 6.31 µM [inhibitor, full curve, poor fit]	

14 entries from above, sorted by number of heavy atoms, rising:
SMILES	Potency	activity change, negative = inhibition
Nc1ccc(S(=O)(=O)Nc2ccccn2)cc1	inactive and inconclusive: 17.2 µM [inhibitor, single point]	
Fc1cccc(-c2nc(-c3ccncc3)no2)c1	inconclusive: 0.0891 µM [inhibitor, full curve, poor fit]	
CC(=O)Cn1cnc2c(sc3nc(C)cc(C)c32)c1=O	inconclusive: 100 µM [inhibitor, single point]	
c1ccc(-c2ccccc2OCCCN2CCCC2)cc1	inconclusive: 6.31 µM [inhibitor, full curve, poor fit]	
O=C(O)C(c1ccccc1)N1C(=O)/C(=C/c2cccs2)SC1=S (stereo not given)	inconclusive: 31.6 µM [inhibitor, single point]	
COc1ccc(OC)c(NC(=O)c2cc(-c3ccc(C)cc3O)n[nH]2)c1	inactive	
O=c1oc2cc(O)ccc2cc1-c1nc(-c2ccc3ccccc3c2)cs1	inconclusive: 8.91 µM [inhibitor, partial curve, poor fit]	
Cc1ccc(-n2nnnc2SC(C(=O)N2CCCC2)c2ccccc2)cc1C (stereo not given)	inactive	
Cc1sc2nc(CN3CCCCC3)nc(Nc3ccc4c(c3)OCCO4)c2c1C	inactive	
COc1ccc(CCC(=O)N2CCC3(CC2)NC(=O)N(c2cccc(Cl)c2)N3)cc1	active: 2 µM	
CNC(=O)NC(=O)C(C)OC(=O)c1c2c(nc3ccccc13)/C(=C/c1cccs1)CC2 (stereo not given)	inconclusive: 50.1 µM [inhibitor, partial curve]	
CCCCn1c(SCc2nc(N)nc(Nc3ccccc3C)n2)nc2ccccc2c1=O	inactive	
CCN1CCC(n2cc(CNc3cc(Cl)c4ncc(C#N)c(Nc5ccc(F)c(Cl)c5)c4c3)nn2)CC1	inconclusive: 8.63 µM [inhibitor, full curve, poor fit]	
COc1cc(C(CC(=O)N2CCCC2)c2c(OC)cc(OC)c3c(-c4ccccc4)cc(=O)oc23)cc(OC)c1OC (stereo not given)	inconclusive: 44.7 µM [inhibitor, partial curve, poor fit]	
